For data set [1], the system named is FOXE1 A65V-Flag + ELK1-HA. Description: EMSA. Conditions: ternary complex: A65V abrogates FOXE1 interaction with TERT-bound ELK1, ELK1 itself binds; EMSA: 1 ug protein, 150 mM KCl, 50 ng/uL poly(dI-dC), 10% glycerol, 10 mM Tris pH 7.5, room temperature 30 min; 6% polyacrylamide gel; recombinant protein; protein details: 3xFlag,HA (pCMV-HA-N); label: 5' biotin. For orientation: A gel shift assay detects complexes by their altered migration in electrophoresis.

The target of data set [2] is T1, FOXE1-Flag (human) (UniProt O00358).
T1 sequence (looked up): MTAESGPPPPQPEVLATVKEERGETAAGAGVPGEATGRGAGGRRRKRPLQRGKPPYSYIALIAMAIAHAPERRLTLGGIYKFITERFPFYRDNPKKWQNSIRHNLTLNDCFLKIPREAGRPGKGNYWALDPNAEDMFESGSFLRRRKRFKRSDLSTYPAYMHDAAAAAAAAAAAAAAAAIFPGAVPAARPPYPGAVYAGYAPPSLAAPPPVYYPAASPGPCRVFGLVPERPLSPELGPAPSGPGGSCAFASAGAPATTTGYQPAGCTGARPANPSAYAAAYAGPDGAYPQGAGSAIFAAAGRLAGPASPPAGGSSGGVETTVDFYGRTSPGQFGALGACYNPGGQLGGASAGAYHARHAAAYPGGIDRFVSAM
Description: EMSA. Conditions: FOXE1 alone, without ELK1; EMSA: 1 ug protein, 150 mM KCl, 50 ng/uL poly(dI-dC), 10% glycerol, 10 mM Tris pH 7.5, room temperature 30 min; 6% polyacrylamide …; recombinant protein; residues 1-373; protein details: 3xFlag (p3XFlag-CMV-7.1); label: 5' biotin.

A negative result means that nothing was seen under these conditions. For some assays here: Where a protein sequence is shown, tags need not be part of it.

Consider “CCCCGCCCCGTCCCGACCCCTCCCGGGTCCCCGGCCCAGCCCCCTCCGGGCCCTCCCAGCCCCTCCCCTTCCTTTCCGCGGCCCC (double strand) [TERT promoter probe]”, for which the binding result in data set [1] and in data set [2] was “no binding” in each case.

(Values after PMC5349888, “Thyroid transcription factor FOXE1 interacts with ETS factor ELK1 to co-regulate TERT”.)
